Source: article PMC4667695
No constants are given. Whether binding was seen depends on the method and setting. In cells and extracts the contact can be indirect. Where a sequence is shown, tags or fusion partners need not be part of it. Blank lines part the entries; values can stand above or below the binder they belong to.

By UniProt entry, the sequences of proteins in these tests, tags left out. Where a name states a change or a piece, a line headed by the entry shows the natural chain unless it says otherwise.
UniProt Q9CAJ0: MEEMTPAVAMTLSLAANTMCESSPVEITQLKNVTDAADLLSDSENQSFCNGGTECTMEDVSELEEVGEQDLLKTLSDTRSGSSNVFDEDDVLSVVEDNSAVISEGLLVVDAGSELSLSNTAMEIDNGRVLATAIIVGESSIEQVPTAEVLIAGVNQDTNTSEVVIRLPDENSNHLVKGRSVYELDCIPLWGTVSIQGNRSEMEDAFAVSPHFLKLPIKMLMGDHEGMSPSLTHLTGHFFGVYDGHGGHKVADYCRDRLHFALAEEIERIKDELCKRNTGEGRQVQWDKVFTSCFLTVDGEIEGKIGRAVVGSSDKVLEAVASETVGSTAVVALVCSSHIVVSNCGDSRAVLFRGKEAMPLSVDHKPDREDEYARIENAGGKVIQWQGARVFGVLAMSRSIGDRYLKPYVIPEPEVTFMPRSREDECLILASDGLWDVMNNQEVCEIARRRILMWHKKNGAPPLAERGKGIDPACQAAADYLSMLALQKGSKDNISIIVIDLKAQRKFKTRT

Target: HAB1 (Arabidopsis thaliana) (UniProt Q9CAJ0)
Assay: co-IP; Arabidopsis protoplasts co-transfected with Myc- and Flag-tagged constructs, 14-16 h; lysate (10 mM HEPES pH 7.5, 100 mM NaCl, 1 mM EDTA, 10% glycerol, 0.5% Triton X-100) on anti-c-Myc agarose 2 h at 4 °C; blots with anti-Flag and anti-Myc

binding: no binding
B1: PUB12-Flag (enzyme, UniProt Q9ZV31 1-654)
chain: MAKSEKHKLAQTLIDSINEIASISDSVTPMKKHCANLSRRLSLLLPMLEEIRDNQESSSEVVNALLSVKQSLLHAKDLLSFVSHVSKIYLVLERDQVMVKFQKVTSLLEQALSIIPYENLEISDELKEQVELVLVQLRRSLGKRGGDVYDDELYKDVLSLYSGRGSVMESDMVRRVAEKLQLMTITDLTQESLALLDMVSSSGGDDPGESFEKMSMVLKKIKDFVQTYNPNLDDAPLRLKSSLPKSRDDDRDMLIPPEEFRCPISLELMTDPVIVSSGQTYERECIKKWLEGGHLTCPKTQETLTSDIMTPNYVLRSLIAQWCESNGIEPPKRPNISQPSSKASSSSSAPDDEHNKIEELLLKLTSQQPEDRRSAAGEIRLLAKQNNHNRVAIAASGAIPLLVNLLTISNDSRTQEHAVTSILNLSICQENKGKIVYSSGAVPGIVHVLQKGSMEARENAAATLFSLSVIDENKVTIGAAGAIPPLVTLLSEGSQRGKKDAATALFNLCIFQGNKGKAVRAGLVPVLMRLLTEPESGMVDESLSILAILSSHPDGKSEVGAADAVPVLVDFIRSGSPRNKENSAAVLVHLCSWNQQHLIEAQKLGIMDLLIEMAENGTDRGKRKAAQLLNRFSRFNDQQKQHSGLGLEDQISLI

binding: no binding
B2: PUB13-Flag (enzyme, UniProt Q9SNC6 1-660)
chain: MEEEKASAAQSLIDVVNEIAAISDYRITVKKLCYNLARRLKLLVPMFEEIRESNEPISEDTLKTLMNLKEAMCSAKDYLKFCSQGSKIYLVMEREQVTSKLMEVSVKLEQSLSQIPYEELDISDEVREQVELVLSQFRRAKGRVDVSDDELYEDLQSLCNKSSDVDAYQPVLERVAKKLHLMEIPDLAQESVALHEMVASSGGDVGENIEEMAMVLKMIKDFVQTEDDNGEEQKVGVNSRSNGQTSTAASQKIPVIPDDFRCPISLEMMRDPVIVSSGQTYERTCIEKWIEGGHSTCPKTQQALTSTTLTPNYVLRSLIAQWCEANDIEPPKPPSSLRPRKVSSFSSPAEANKIEDLMWRLAYGNPEDQRSAAGEIRLLAKRNADNRVAIAEAGAIPLLVGLLSTPDSRIQEHSVTALLNLSICENNKGAIVSAGAIPGIVQVLKKGSMEARENAAATLFSLSVIDENKVTIGALGAIPPLVVLLNEGTQRGKKDAATALFNLCIYQGNKGKAIRAGVIPTLTRLLTEPGSGMVDEALAILAILSSHPEGKAIIGSSDAVPSLVEFIRTGSPRNRENAAAVLVHLCSGDPQHLVEAQKLGLMGPLIDLAGNGTDRGKRKAAQLLERISRLAEQQKETAVSQPEEEAEPTHPESTTEAADT
